Measurements: the supplement of paper PMC10338343
± gives the standard deviation. The entries are a selection whose mix differs from that of the whole data set. Many of these values have a large error.

Legend:
[1] = system: MIWI (PIWIL1) piRISC loaded with piRNA #1 (30 nt); test: pre-steady-state target cleavage rate (min^-1); higher = faster piRNA-guided slicing of the target; conditions: guide: piRNA #1 5'p-UGAGGUAGUAGGUUGUAUAGUAUCCAGAGG; auxiliary factor: 500 nM mouse GTSF1
Method in brief: (§1)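 The pre-steady-state cleavage rate came from a burst-and-steady-state fit to pooled data from three Cleave-'n-Seq trials, in which uncleaved targets were sequenced and normalised to depth and to weakly complementary targets. Each reaction held 0.1 nM transcribed, DNA-blocked target RNA library and 1 nM active affinity-purified piRISC carrying one synthetic guide, with or without 500 nM GTSF1 partner protein, in HEPES–potassium acetate buffer at 33 °C for 0–8 or 0–960 min. k3 was capped at 0.0001 min^-1.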

[2] = system: EfPiwi piRISC loaded with piRNA #1 (26 nt); test: pre-steady-state target cleavage rate (min^-1); guide: piRNA #1 5'p-UGAGGUAGUAGGUUGUAUAGUAUCCA; MIWI and MILI are mouse PIWI proteins and EfPiwi is from a freshwater sponge; tags in brackets are library labels; higher = faster piRNA-guided slicing of the target; conditions: auxiliary factor: 500 nM Ephydatia muelleri Gtsf1
Method in brief: as §1

| Sequence | pre-steady-state target cleavage rate [1] | pre-steady-state target cleavage rate [2] |
| --- | --- | --- |
| GGAGACCUAUGAAUACAACGUACUACCACA | 0.000224 ± 0.013 | 0.000112 ± 0.036 |
| GGAGACCUAUGAUAUGUUGCUACAUGCUCA | 0.00171 ± 0.0048 | 0.000928 ± 0.0093 |
| GGAGACCUAUGAUUACAAGCUACUACCUCA | 0.00213 ± 0.0044 | 0.00109 ± 0.0053 |
| GGAGACCUAUGAUAACAACCUACGACCUCA | 0.000263 ± 0.0085 | 0.000206 ± 0.02 |
| GGAGACCUAUGAUUACAACCUACUAGCCUCA | 0.000807 ± 0.0045 | 0.0011 ± 0.007 |
| GGAGACCUAUGAUUUCAACCUACAACCUCA | 0.000174 ± 0.013 | 0.00014 ± 0.02 |
| GGAGACCUAUGAUUACAAACUACUACCUCA | 0.00125 ± 0.004 | 0.000457 ± 0.0065 |
| GGAGACCUAUGAAUACAACGUACUACCUCA | 0.000348 ± 0.0063 | 0.00114 ± 0.0056 |
| GGAGACCUAUGAAUACAUCCUACUUCCUCA | 0.00087 ± 0.0044 | 0.00038 ± 0.007 |
| GGAGACCAUAUAUACAACCUACUACCUCA | 0.184 ± 0.018 | 0.00541 ± 0.0043 |
| GGAGAGGAUACUAUACAACCGUACUACCUCA | 0.00128 ± 0.0062 | 0.00659 ± 0.0028 |
| GGAGACCUAAGUAUACAACCAACUACCUCA | 0.00191 ± 0.0055 | 0.00237 ± 0.0063 |
| GGAGACCUAUGAAUACAACCUUCUACCUCA | 0.00145 ± 0.0028 | 0.000979 ± 0.0062 |
| GGAGACCUAUGAAUACAACCUACUACCUAA | 0.000975 ± 0.0073 | 0.000866 ± 0.0067 |
| GGAGACCUAUGAAUACAACCUAUUACCUCA | 0.000362 ± 0.0088 | 0.00123 ± 0.0047 |
| GGAGACCUAUGUAUACAACCUAGUUCCUCA | 0.00129 ± 0.003 | 0.00154 ± 0.0069 |
| GGAGACCUAUGUAUACAUCCUACUACCUGA | 0.00251 ± 0.003 | 0.00116 ± 0.008 |
| GGAGACCUAUGUUUUCAACCUACUACCUCA | 0.00229 ± 0.0032 | 0.00124 ± 0.007 |
| GGAGACCUAUGAUUACAACACUACUACCUCA | 0.000254 ± 0.01 | 0.00167 ± 0.0062 |
| GGAGACCUAUGAUUACAACCUACUGCCUCA | 0.000222 ± 0.0086 | 0.00279 ± 0.0039 |

Fetched one by one from the list above:

| Sequence | pre-steady-state target cleavage rate [1] | pre-steady-state target cleavage rate [2] |
| --- | --- | --- |
| GGAGACCUAAGUAUACAACCAACUACCUCA | 0.00191 ± 0.0055 | 0.00237 ± 0.0063 |
| GGAGACCUAUGAUUACAACCUACUGCCUCA | 0.000222 ± 0.0086 | 0.00279 ± 0.0039 |
| GGAGACCUAUGUAUACAACCUAGUUCCUCA | 0.00129 ± 0.003 | 0.00154 ± 0.0069 |
| GGAGACCUAUGAAUACAUCCUACUUCCUCA | 0.00087 ± 0.0044 | 0.00038 ± 0.007 |

Next results follow.

| Sequence | pre-steady-state target cleavage rate [1] | pre-steady-state target cleavage rate [2] |
| --- | --- | --- |
| GGAGACCUAUGAAUACAACCUACUAGCCUCA | 0.00142 ± 0.0048 | 0.000162 ± 0.021 |
| GGAGACCUAUGAUUACAACCUACUACUUCA | 0.00236 ± 0.0027 | 0.00206 ± 0.0058 |
| GGAGACCUAUGAUAUGUUGCUUCUACGUCA | 0.000532 ± 0.0088 | 0.000601 ± 0.0078 |
| GGAGACCUAUGUAAACAACCUUCUACCUCA | 0.00209 ± 0.0036 | 0.000268 ± 0.01 |
| GGAGACCUAUGUAUACAACCUACUACCUGCA | 0.0855 ± 0.011 | 0.000926 ± 0.0076 |
| GGAGACCUAUCUAUAGCAACCUACUACCUCA | 0.00241 ± 0.0028 | 0.00357 ± 0.0041 |
| GGAGACCUAUGAUAACAACCCACUACCUCA | 0.00148 ± 0.0044 | 0.000348 ± 0.014 |
| GGAGACCUAUGUAUACAACCGUACUACCUCA | 0.00151 ± 0.0058 | 0.000196 ± 0.016 |
| GGAGAGGAUACUAUACAACCUAUACCUCA | 0.00143 ± 0.004 | 0.00469 ± 0.0024 |
| GGAGACCUAUGAUAUGUUGCUACUACCUCC [g2:g11:cont:t1C] | 0.000197 ± 0.015 | 0.000454 ± 0.01 |
| GGAGACCUUACAAUACAAGCUACUACCUCA | 0.258 ± 0.035 | 0.000496 ± 0.0037 |
| GGAGACCUAACUAUACAACCUACAAGCUCA | 0.00159 ± 0.0094 | 0.000244 ± 0.01 |
| GGAGACCUAUGAUAUGUUGCUACUACCGUCA | 0.000695 ± 0.0069 | 0.000712 ± 0.007 |
| GGAGACGAUACUUUACAACCUACUAGCUCA | 0.142 ± 0.027 | 0.00154 ± 0.0021 |
| GGAGACCUAUGUUUAGAACCUACUACCUCA | 0.000195 ± 0.014 | 0.00077 ± 0.0086 |
| GGAGACCUAUGAUAUGUACCAUCUACCUCA | 0.000265 ± 0.012 | 0.000137 ± 0.018 |
| GGAGACCUAUGAUAACAACCUACUACCUGCA | 0.00114 ± 0.0053 | 0.000452 ± 0.016 |
| GGAGACCUAUGAUAUGUUGGUUCUACGUCA | 0.000459 ± 0.01 | 0.000221 ± 0.0088 |
| GGAGACCUAUGAUAUGUUGCUGACUACCUCA | 0.000197 ± 0.015 | 0.00057 ± 0.0065 |
| GGAGACCUAUGAAUACGACCUACUACCUCA | 0.000305 ± 0.011 | 0.00221 ± 0.0044 |

| Sequence | pre-steady-state target cleavage rate [1] | pre-steady-state target cleavage rate [2] |
| --- | --- | --- |
| GGAGACCUAUGAAUACAACCUACUAUCCUCA | 0.002 ± 0.0027 | 0.000332 ± 0.015 |
| GGAGACCUAACUUUUCAACCUACUACCUCA | 0.00417 ± 0.0048 | 0.00135 ± 0.0078 |
| GGAGACCUUACAUAACAACCUACUACCUCA | 0.00221 ± 0.004 | 0.00133 ± 0.0064 |
| GGAGACCUAUGAUAUCAAGCUACUACCUGA | 0.000948 ± 0.0063 | 0.0014 ± 0.0045 |
| GGAGACCUAUCAAUACAACGUACUACCUCA | 0.00242 ± 0.0031 | 0.00144 ± 0.004 |
| GGAGACCUAUGAUUACAUCCUACAACCUCA | 0.00088 ± 0.0049 | 0.000233 ± 0.012 |
| GGAGACCUAUGAAUACAACCUACUACCUGA | 0.000958 ± 0.0041 | 0.00156 ± 0.0044 |
| GGAGACCUAUGUAAUCAACCUACUACCUCA | 0.00115 ± 0.005 | 0.00131 ± 0.0052 |
| GGAGACCUAUGAUAUCAAGCUACUACCACA | 0.0002 ± 0.011 | 0.000178 ± 0.018 |
| GGAGACCUAUGAUUACAACCUACUACCUACA | 0.000824 ± 0.01 | 0.000799 ± 0.011 |
| GGAGACCAUACUAAACAACCUACUACCUGA | 0.604 ± 0.08 | 0.00245 ± 0.0027 |
| GGAGACCUAUGAUUACAACGUACUACCACA | 0.000297 ± 0.0084 | 0.000559 ± 0.01 |
| GGAGACCUAACAAUACUACCUACUACCUCA | 0.000699 ± 0.012 | 0.00212 ± 0.0042 |
| GGAGACCUAUGUAUUCAACGUACUACCUCA | 0.00117 ± 0.0029 | 0.000375 ± 0.0068 |
| GGAGACCUAUGAUAAGCAACCUACUACCUCA | 0.00106 ± 0.0057 | 0.00111 ± 0.0071 |
| GGAGACCAUACUAAACAACCUACUUCCUCA | 0.195 ± 0.024 | 0.00213 ± 0.0035 |
| GGAGACCUAUGAAUACAACCUACAUACCUCA | 0.00106 ± 0.0052 | < 0.0001 |
| GGAGUGGAUACUAUACAACACUACUACCUCA | 0.000749 ± 0.0084 | 0.00629 ± 0.003 |
| GGAGACCUAUGAAAACAAGCUACUACCUCA | 0.00104 ± 0.005 | 0.00109 ± 0.01 |
| GGAGACCUAUGAUUACUACCUACUACCUCA | 0.000198 ± 0.012 | 0.00129 ± 0.005 |
